# Laboratory results published in paper PMC12040169 (PLOS Biology, 2025).
# The list shows a part of the results.
# Test system: T1, CTL2-GFP (C. trachomatis L2/434/Bu, GFP-expressing)
# T1 construct: L2/434/Bu, GFP-expressing
# Parameters: species or system HeLa; Intracellular C. trachomatis growth in HeLa cells, bulk GFP fluorescence relative to DMSO
# Settings: bulk GFP, single well; 28.5 h, 10 µM; inhibitor
row,SMILES,% of control remaining [%]
1,O=[N+]([O-])c1cc(C(F)(F)F)ccc1NC(CO)(CO)CO [CBK261838],100
2,CCOC(=O)C1(C2CCCCC2)CCN(C(=O)c2ccc(S(N)(=O)=O)cc2)CC1 [CBK137105],127.12
3,Cc1nc(-c2ccccc2)sc1CNC(=O)c1ccc([N+](=O)[O-])o1 [CBK092352],29.5023
4,O=C(CSCc1cccc(Br)c1)Nc1cccc2cccnc12 [CBK261204],105.628
5,Nc1ncc2cc(C(F)(F)F)ccc2n1 [CBK100705],97.3071
6,Oc1ccc(/N=C/C=C/c2ccc(Cl)cc2Cl)cc1-c1nc2ccccc2s1 [CBK261242],89.5558
7,CNC(=S)NNC(=O)CN1CCSCC1 [CBK262444],97.0709
8,N#Cc1ccc(N2CCN(CCCNC(=O)Nc3ccccc3)CC2)cc1 [CBK267861],117.459
9,CCCSc1nc2c(c(=O)[nH]1)C(c1ccncc1)C1=C(CCCC1=O)N2 (stereo not shown) [CBK287606],153.63
10,Cc1ncsc1CCOc1nccc(C(F)(F)F)n1 [CBK115798],117.6
11,COc1ccc(N(CC(=O)O)S(=O)(=O)c2ccccc2[N+](=O)[O-])c(OC)c1 [CBK262729],100
12,Cc1cnc(CNC(=O)Cn2nnc(-c3ccc(CN4CCC(C)CC4)cc3)n2)cn1 [CBK137067C],121.153
13,Cc1cc(C)c(OCCOCCN2CCN(C)CC2)c(Cl)c1 [CBK263744G],100
14,CCn1c(C)cc(C(=O)NC2CCN(c3ncccc3C#N)CC2)c1C [CBK306524],90.355
15,c1ccc(CC2CCN(Cc3cccnc3)CC2)cc1 [CBK126381],100
16,Cc1nc(CN2CCCC(NCc3cccc(C(N)=O)c3)C2)no1 (stereo not shown) [CBK304929],126.592
17,CC(=O)c1c(C)oc2c1cc(NS(=O)(=O)c1ccc(C(=O)O)cc1)c1ccccc12 [CBK299780],133.526
18,Cc1c(C(=O)Nc2nccs2)nnn1-c1ccccc1 [CBK287766],106.681
19,Cc1cc(Cl)c(OCCNCCN)c(Br)c1 [CBK265079],122.049
20,O=C(C1=C(O)C(=O)N(CCCN2CCOCC2)C1c1ccccn1)c1ccccc1 (stereo not shown) [CBK266604],174.127
21,COC(=O)c1cnc(Sc2ccc(Cl)cc2)nc1C(F)(F)F [CBK009299],93.5449
22,CC(C)C(NS(=O)(=O)c1ccccc1)C(=O)Nc1ccccc1 (stereo not shown) [CBK270001],156.42
23,CCNC(=O)N1CC2(CCN(CCCCC3NC(=O)NC3=O)CC2)c2ccccc21 (stereo not shown) [CBK126707],111.807
24,Brc1ccc2nc(NCc3ccccn3)nc(-c3ccccc3)c2c1 [CBK266736],116.292
25,Cc1nn(C)cc1C(=O)NC1CCCC1 [CBK057851],140.05
26,CCc1cc(-c2n[nH]c(C)c2Oc2ccc(C(C)C)cc2)c(O)cc1O [CBK264940],93.3923
27,CC(Nc1cccc2ccccc12)C(=O)N/N=C/c1ccc(O)cc1O (stereo not shown) [CBK262681],43.74

# Copied from the entries so far, two compounds:
row,SMILES,% of control remaining [%]
25,Cc1nn(C)cc1C(=O)NC1CCCC1 [CBK057851],140.05
26,CCc1cc(-c2n[nH]c(C)c2Oc2ccc(C(C)C)cc2)c(O)cc1O [CBK264940],93.3923

# Further results follow.

row,SMILES,% of control remaining [%]
1,CCC(C)c1nnc(C2(c3ccc(Br)cc3)CCOCC2)o1 (stereo not shown) [CBK306229],102.745
2,O=C(/C=C/c1ccc2c(c1)OCO2)Nc1ccc(S(=O)(=O)Nc2cnc3ccccc3n2)cc1 [CBK265445],78.0753
3,O=C(Cc1ccccc1F)NCc1nnc(-c2cccs2)o1 [CBK284632],145.443
4,CCc1nc2ccc(C(=O)Nc3ccc4c(c3)CCN4C(C)=O)cn2c1N(C=O)CC [CBK145944],149.914
5,Cc1cc(NC(=O)c2c(F)cccc2F)nc2c1c(=O)oc1ccccc12 [CBK291115],125.149
6,Cc1cc(C)nc(NC(=O)C(C)Oc2ccc(Cl)cc2Cl)n1 (stereo not shown) [CBK265600],110.66
7,Cc1ccnc(SCCn2c(N(C)Cc3ccccc3)nc3c2c(=O)n(C)c(=O)n3C)n1 [CBK269394],151.747
8,CCN(CC)CCNc1ncnc(N)c1[N+](=O)[O-] [CBK267287],126.267
9,Cc1ccc(C(=O)Nc2ccc(S(=O)(=O)N3CCCC3)cc2)cc1S(=O)(=O)Nc1ccccc1 [CBK268054],82.3038
10,CC(=O)NCCSc1cc(NC(C)C)ncn1 [CBK105293],110.619
11,COC(=O)Cn1cnc2sc(C(=O)Nc3ccccc3OC)c(C)c2c1=O [CBK071808],129.959
12,Cc1cc(C2CCCCCN2C(=O)c2nn(C)cc2Cl)on1 (stereo not shown) [CBK284843],104.896
13,COc1ccc(/C(C)=N/NC(=O)CSCc2cccc(Br)c2)cc1 [CBK261205],115.502
14,O=C(Nc1ccc(Cl)cc1)N1Cc2nc[nH]c2C[C@H]1c1nc(-c2ccncc2)no1 [CBK288964],143
15,CCOc1cc(C(c2c[nH]c3ccccc23)c2c[nH]c3ccccc23)cc([N+](=O)[O-])c1O [CBK266061],116.226
16,Fc1cc(Br)ccc1-c1cn(-c2ccccc2)nn1 [CBK113148],70.4632
17,Cc1cc(C)n(C2CCN(Cc3ccc4ccccc4n3)CC2)n1 [CBK281622],146.693
18,CC(=O)C1=C(O)C(=O)N(CC(=O)O)C1c1ccc(Br)cc1 (stereo not shown) [CBK286712],108.562
19,O=C(Nc1ncccc1O)c1cnc2c(cnn2C2CCCC2)c1 [CBK305246],102.674
20,Cc1nn(C)c(C)c1OCC(=O)Nc1cc(C(C)(C)C)sc1C#N [CBK305383],110.403
21,NS(=O)(=O)c1ccc(NC(=O)CSc2ccc3ccccc3n2)cc1 [CBK265663],131.298
22,Cc1ccc(NC(=O)Nc2ccc(F)cc2)cc1S(=O)(=O)N(C)C [CBK269482],77.7678
23,COc1ccc(C(=O)C=c2[nH]c(=O)c(=Cc3ccc(C(=O)O)cc3)s2)cc1 [CBK295614],97.3844
24,CCc1c(C)nc2c(-c3ccc(OC)c(OC)c3)cnn2c1O [CBK287962],130.054
25,COc1cc(-c2nc(N)n[nH]2)cc(OC)c1OC [CBK288077],150.59
26,COc1ccc(N(CC(=O)Nc2ccc3c(c2)oc2ccccc23)S(=O)(=O)c2ccccc2)cc1 [CBK264814],137.758
27,COc1cc(C=c2sc(=CC(=O)C(C)(C)C)[nH]c2=O)ccc1OCC(=O)O [CBK296948],130.66

row,SMILES,% of control remaining [%]
1,COc1nccnc1OC1CCN(Cc2ccccc2-c2ccccc2)CC1 [CBK084246],91.4315
2,Cc1cc(N2CCOC3(CCN(C(=O)c4ccc5ccccc5c4)CC3)C2)nc(N)n1 [CBK161125A],123.172
3,COc1ccc(CCN2CCC(Oc3cncc(OCC4COc5ccccc5O4)n3)C2)cc1OC (stereo not shown) [CBK084389],105.416
4,O=C1Cc2cc3ccccc3cc2C2(CCN(CCC(F)=C(F)F)CC2)N1 [CBK040033],129.681
5,O=S(=O)(c1cccs1)N1CCc2ccccc2C1 [CBK044531],63.612
6,CN(Cc1ccccc1)Cc1c(C2CCNCC2)[nH]c2ncccc12 [CBK285083],88.8798
7,COc1ccc2[nH]cc(CCNC(=O)c3ccc(-c4cccc(N(C)C)c4)nc3N(C)C(C)=O)c2c1 [CBK076589],128.645
8,O=C(O)CCCC(=O)NC(Cc1ccccc1)C(=O)Nc1ccc([N+](=O)[O-])cc1 (stereo not shown) [CBK299806],140.4
9,C/C(=N\Nc1nnc2c(n1)[nH]c1ccccc12)c1ccccn1 [CBK262054],0
10,COC1C(O)C(CO)OC1n1cc(C)c(=O)[nH]c1=O (stereo not shown) [CBK201251],152.045
11,O=C(O)c1cc(S(=O)(=O)Nc2ccccc2)ccc1O [CBK109969],91.2776
12,COc1ccc(NC(=O)CSc2nc3c(N)ncnc3[nH]2)cc1 [CBK218441],128.182
13,CCN(CC)CCCNC(=O)N1CCCCC1CO (stereo not shown) [CBK155982],98.7577
14,CCCc1cc(C(=O)N[C@@H]2CCOC[C@H]2Oc2ccc(CO)cc2)cs1 [CBK306700],135.022
15,O=C(OCc1ccccc1)N1CCC2(CC1)CN(c1ccc([N+](=O)[O-])cn1)CCO2 [CBK161111T],99.183
16,COc1ccc(/C=C2/SC(=O)N(CCNC3=NS(=O)(=O)c4ccccc43)C2=O)cc1 [CBK265545],122.661
17,O=C1NCCN1CCOc1nccnc1-c1ccsc1 [CBK106766],103.016
18,O=S(=O)(Nc1nnn[nH]1)c1ccc(F)cc1 [CBK050473],109.85
19,COc1cccc(C(=O)NC[C@H]2CC[C@H](c3cc(C(N)=O)c4ccccc4n3)CC2)c1OC [CBK285919],96.9273
20,O=C(OCCC1SC(NC2CC3C=CC2C3)=NC1=O)c1ccc(Cl)c([N+](=O)[O-])c1 (stereo not shown) [CBK200060T],49.7781
21,Nc1nc(SCC(=O)NCc2ccco2)n[nH]1 [CBK266572],145.373
22,Cc1ccc(-c2csc(C3CN4CCCC4CO3)n2)s1 (stereo not shown) [CBK304113],81.3821
23,CC(=O)c1ccc(NC(=O)Nc2nnc(CCN3CCCC3)s2)cc1 [CBK174990],92.0867
24,CC(=O)NC(c1ccccn1)C1CCN(Cc2cccc(F)c2)CC1 (stereo not shown) [CBK285461],118.603
25,CCCNC(=O)COc1ccc(CC)cc1 [CBK058199],101.815

# Single entries from the entries so far:
# Entry for O=S(=O)(c1cccs1)N1CCc2ccccc2C1 [CBK044531] under % of control remaining [%]: 63.612
# Entry for O=C(O)CCCC(=O)NC(Cc1ccccc1)C(=O)Nc1ccc([N+](=O)[O-])cc1 (stereo not shown) [CBK299806] under % of control remaining [%]: 140.4
# Entry for COc1ccc(CCN2CCC(Oc3cncc(OCC4COc5ccccc5O4)n3)C2)cc1OC (stereo not shown) [CBK084389] under % of control remaining [%]: 105.416
